Results from PubChem BioAssay AID540256 (National Center for Advancing Translational Sciences (NCATS), 2011).
About 3,700 (1.2%) of roughly 300,000 compounds were called active. Inconclusive means that the source gave no clear call. Such entries were picked first, then a sample of the others. The call rests on the fitted dose curve; tested in HEK293 cells. Where the call is inconclusive, the potency comes from a doubtful curve fit.
Potency means the concentration at half of the fitted maximal effect.

Experiment: qHTS for Inhibitors of binding or entry into cells for Lassa Virus; further: nearly all actives have a fitted effect of over 50% in size
Settings: Lassa virus pseudotype entry inhibition, cell reporter; series mostly up to 37.9 µM
In the case of `CCn1nnc(NC(=O)COc2ccc([N+](=O)[O-])cc2)n1`, the Potency was inconclusive: 0.562 µM [activator, full curve, poor fit]. With `Cc1cccnc1Nc1nc(-c2ccccn2)cs1` the Potency was active: 7.08 µM. In the case of `COc1ccc(C(=O)C(C)OC(=O)c2cccc(S(=O)(=O)Nc3c(C)n(C)n(-c4ccccc4)c3=O)c2)cc1` (configuration not stated), the Potency was “inactive”. In the case of `O=c1nc(N2CCCCC2)nc2n1CCO2`, the Potency was inconclusive: 22.4 µM [activator, single point]. With `Cc1ccc(NC(=O)COc2coc(CN3c4ccccc4CC3C)cc2=O)c(C)c1` (configuration not stated) the Potency was “inactive”. For `Cc1cccc(Nc2ncnc3ccccc23)c1`, the Potency was “inactive”. For `COc1ccc(C2CC(=O)Nc3cc4c(cc32)OCO4)c(OC)c1` (configuration not stated), the Potency was inconclusive: 11.2 µM [inhibitor, partial curve, poor fit]. For `COc1cc(/C=N/NC(=O)c2cc(-c3cccc(OC(C)C)c3)nc3ccccc23)ccc1O`, the Potency was active: 3.55 µM. In the case of `COc1ccc(Nc2cc(C(=O)NCCCN3CCOCC3)c3ccccc3n2)cc1OC`, the Potency was inconclusive: 18.3 µM [activator, partial curve, poor fit]. In the case of `Cc1ccc(S(=O)(=O)CC(=O)Nc2nc(C(C)(C)C)cs2)cc1`, the Potency was active: 3.66 µM. In the case of `Cc1ccc(OCc2nnc(NC(=O)c3ccco3)s2)c(C)c1`, the Potency was “inactive”. For `Cc1ccc(C)c(NC(=O)CSc2nnc(NC(=O)Nc3ccccc3)s2)c1`, the Potency was “inactive”. For `O=C1COc2ccc(C(=O)COC(=O)c3ccc(Cl)cc3[N+](=O)[O-])cc2N1`, the Potency was “inactive”. For `Cc1ccc(OCCOC(=O)c2c(-c3ccccc3)noc2C)cc1`, the Potency was inconclusive: 11.2 µM [inhibitor, partial curve, poor fit]. In the case of `COc1ccc(CCCC(=O)NC(C)c2ccccc2)cc1` (configuration not stated), the Potency was inconclusive: 25.1 µM [inhibitor, single point]. For `COc1ccc(OCCCC(=O)Nc2nc(C)c(C(C)=O)s2)cc1`, the Potency was inconclusive: 0.398 µM [inhibitor, partial curve, poor fit]. With `COc1ncccc1C(=O)NC1CCCc2c1cnn2-c1cc(C)cc(C)c1` (configuration not stated) the Potency was “inactive”. In the case of `O=C(c1ccc(F)cc1)c1cnc(Nc2ccccc2)s1`, the Potency was inconclusive: 5.62 µM [activator, single point]. For `CCCS(=O)(=O)c1nc(S(=O)(=O)c2ccc(C)cc2)c(NCC(C)C)s1`, the Potency was “inactive”. In the case of `CCOC(=O)N1CCC(NC(=O)C2CCCN(Cc3nc(-c4ccc(CC)cc4)oc3C)C2)CC1` (configuration not stated), the Potency was inconclusive: 7.08 µM [inhibitor, full curve, poor fit]. In the case of `Cc1ccc(NC(=O)OCc2cn(-c3ccc(Cl)cc3)nn2)cc1`, the Potency was “inactive”. With `COc1ccc(NC(=O)c2cc3c(=O)n(C)c4cc(Cl)ccc4c3s2)cc1Cl` the Potency was “inactive”. For `CCN(CC)S(=O)(=O)c1ccc(-c2nnc(SCC(=O)c3ccc(OC)cc3)o2)cc1`, the Potency was “inactive”. With `CCCN1C/C(=C/c2cccc([N+](=O)[O-])c2)C(=O)/C(=C/c2cccc([N+](=O)[O-])c2)C1` the Potency was active: 2 µM. For `Cc1ccc(COn2c(-c3ccc(Cl)cc3Cl)nc3ncccc32)cc1`, the Potency was inconclusive: 22.4 µM [inhibitor, single point]. In the case of `COc1ccc(NC(=O)CN(C)C(=O)c2ccccc2CCc2ccccc2)cc1`, the Potency was inconclusive: 12.6 µM [inhibitor, partial curve, poor fit]. With `NC(=S)n1[nH]c(-c2ccc([N+](=O)[O-])cc2)c(N=Nc2ccc(O)cc2)c1=O` the Potency was “inactive”. With `CC1(C)N=C(N)N=C(N)N1c1cccc(C#N)c1` the Potency was active: 2.51 µM. For `COc1ccc(C2CC(c3ccccc3)=NN2c2ccc(N)cc2)cc1` (configuration not stated), the Potency was inconclusive: 14.6 µM [activator, partial curve, poor fit]. For `Cc1nc2c(-c3ccccc3)c(C)[nH]n2c(=O)c1Cc1ccc(Br)cc1`, the Potency was inconclusive: 5.62 µM [inhibitor, full curve, poor fit]. For `COc1ccccc1CN(C)C(=O)c1cc(-c2cccs2)nc2ccccc12`, the Potency was inconclusive: 35.5 µM [inhibitor, single point]. For `Cc1ccc(OCCOc2cccc(Br)c2)c([N+](=O)[O-])n1`, the Potency was “inactive”. With `Cc1cccc(C(=O)Nc2ccc(C(=O)c3ccccc3)cc2)c1` the Potency was inconclusive: 25.1 µM [activator, single point]. In the case of `O=C(NC(=S)NCCN1CCOCC1)c1ccccc1Br`, the Potency was inconclusive: 0.231 µM [inhibitor, single point]. For `COc1ccc(CNC(=O)C2CCCN(C(=O)c3cnn(-c4ccc(F)cc4)c3-n3cccc3)C2)cc1` (configuration not stated), the Potency was “inactive”. In the case of `C=CCN=C(NC#N)SCC(=O)c1cccc(OC)c1`, the Potency was “inactive”. In the case of `CC(=O)c1cccc(NC(=O)CC(C)n2ccnc2)c1` (configuration not stated), the Potency was inconclusive: 35.5 µM [activator, partial curve, poor fit]. For `CN(C)/C=C/C(=O)c1nnn(C2CCCCC2)c1NC1CCCCC1`, the Potency was inconclusive: 25.9 µM [inhibitor, partial curve, poor fit]. In the case of `COc1ccccc1-n1c(SCC(N)=O)nc2sc3c(c2c1=O)CCC3`, the Potency was inconclusive: 22.4 µM [activator, single point]. With `CN(C(=O)CSc1nnc(-c2cccs2)o1)C1CCS(=O)(=O)C1` (configuration not stated) the Potency was “inactive”. For `COc1cc(Nc2ncc(-c3ccccc3)o2)cc(OC)c1OC`, the Potency was inconclusive: 2.5 µM [inhibitor, full curve, poor fit]. With `COC(=O)c1c(C)[nH]c(C=O)c1-c1ccccc1` the Potency was “inactive”. In the case of `Cc1c(C(=O)c2ccccc2)c2ccccn2c1CCc1ccccn1`, the Potency was inconclusive: 35.5 µM [inhibitor, single point]. In the case of `COCC(C)NC(=O)c1ccc2nc(-c3ccccc3)c(-c3ccccc3)nc2c1` (configuration not stated), the Potency was inconclusive: 12.6 µM [inhibitor, single point]. With `Cc1ccc(S(=O)(=O)/N=C(/NC(=S)Nc2cccc(C)c2)c2ccccc2)cc1` the Potency was “inactive”. In the case of `COc1ccc(CN2CCC(Oc3ccc(C(=O)N4CCCCC4)cc3)CC2)cc1C`, the Potency was inconclusive: 8.91 µM [inhibitor, partial curve, poor fit]. With `CN(C)c1nc(N(C)C)c2cnn(C)c2n1` the Potency was “inactive”. With `O=C(NCCCN1CCOCC1)c1sc2cc([N+](=O)[O-])ccc2c1Cl` the Potency was inconclusive: 10 µM [activator, partial curve, poor fit]. In the case of `CC1=C(C(=O)c2ccccc2)C(c2ccc(OC(F)F)cc2)NC(=S)N1` (configuration not stated), the Potency was inconclusive: 14.1 µM [inhibitor, partial curve]. For `CC(NCc1cccs1)C(=O)NC1CCCCC1` (configuration not stated), the Potency was inconclusive: 14.1 µM [activator, single point]. For `CCCCNC(=O)Cn1c(=O)cc(C)c2c(C)nn(-c3cccc(Cl)c3C)c21`, the Potency was inconclusive: 11.2 µM [activator, partial curve, poor fit]. With `C=CCN1C(=O)/C(=C2/Sc3ccccc3N2CC)SC1=S` the Potency was inconclusive: 11.2 µM [activator, partial curve, poor fit]. For `CC(C)(C)OC(=O)N1CCC(c2c(C(=O)NCc3ccco3)cnn2-c2ccc(F)cc2F)CC1`, the Potency was inconclusive: 6.31 µM [inhibitor, single point]. With `COc1ccc(C(Nc2ccccc2)P(=O)(Oc2ccccc2)Oc2ccccc2)cc1` (configuration not stated) the Potency was “inactive”. In the case of `O=C(NN1C(=O)c2ccccc2NC1c1ccco1)c1ccccc1` (configuration not stated), the Potency was “inactive”. With `CCC(=O)Nc1ccc(C)cc1-c1nc2ccccc2n(CC(=O)c2ccc(C)cc2)c1=O` the Potency was “inactive”. In the case of `CCOc1cc(/C=C2\CN(C)C/C(=C\c3ccc(O)c(OCC)c3)C2=O)ccc1O`, the Potency was inconclusive: 1.41 µM [inhibitor, partial curve, poor fit]. With `C=CCn1c(C)cc(C2=NNC(=NCc3ccccc3)SC2)c1C` the Potency was inconclusive: 35.5 µM [inhibitor, single point]. With `O=C(COC(=O)Cc1c(Cl)cccc1Cl)Nc1ccccc1-c1ccccc1` the Potency was inconclusive: 35.5 µM [inhibitor, single point]. With `COc1cc(C(=O)NCc2nnc(SCC(=O)N3CCC(C)CC3)o2)cc(OC)c1OC` the Potency was inconclusive: 0.259 µM [inhibitor, single point]. With `O=C1Cc2cc(S(=O)(=O)N3CCNCC3)ccc2N1` the Potency was “inactive”. In the case of `CC(=O)NCCC(=O)N1CCc2c([nH]c3ccccc23)C1c1cccc(C)c1` (configuration not stated), the Potency was “inactive”. In the case of `CC(C)(C)C1CCC(=NNC(=S)NCc2ccccc2)CC1` (configuration not stated), the Potency was inconclusive: 11.2 µM [inhibitor, partial curve, poor fit]. For `COc1ccc(OC(=O)c2nc(SCc3ccc(C)cc3)ncc2Cl)cc1`, the Potency was “inactive”. For `CCCCN(Cc1ccccc1)S(=O)(=O)c1cc(Br)cc2c1N(C(C)=O)C(C)C2` (configuration not stated), the Potency was inconclusive: 23.1 µM [inhibitor, partial curve, poor fit]. With `COc1ccc2nc(SCC(C)=O)c(C#N)cc2c1` the Potency was active: 5.62 µM. In the case of `CNC(=O)Cn1nc(-c2ccc(C)c(S(=O)(=O)N(C)C)c2)c2ccccc2c1=O`, the Potency was “inactive”. With `CCN1CCN(Cc2c(O)ccc3c2O/C(=C\C=C\c2ccccc2)C3=O)CC1` the Potency was inconclusive: 18.4 µM [inhibitor, single point]. With `CN(C)S(=O)(=O)c1ccc(N2CCCC2)c(C(=O)NC2CCC(O)CC2)c1` (configuration not stated) the Potency was inconclusive: 0.891 µM [activator, full curve, poor fit]. With `CCC(Cc1ccccc1)NC(=O)c1ccc2nc(N3CCC(C)CC3)sc2c1` (configuration not stated) the Potency was “inactive”. In the case of `Cc1ccc(NC(=O)Cn2c(=O)n(Cc3ccccc3)c(=O)c3c(C)c(C)sc32)c(C)c1`, the Potency was “inactive”. In the case of `COc1cc2c(cc1Cl)/C(=C\CCN(C)C)c1ccccc1S2`, the Potency was inconclusive: 23.1 µM [inhibitor, partial curve, poor fit].
